For experiment [1], the target named is DBT, dihydrolipoyl transacylase (E2 component of the BCKDH complex) (mouse (endogenous in heart)) (UniProt P53395). The experiment is described as follows: affinity purification with mass spectrometry; immunoprecipitation with 2 ug antibody against DBT or MCCA and G-Sepharose beads from 1 mg heart protein lysate in RIPA buffer (50 mM Tris-HCl pH 7.4, 1% NP-40, 0.25% sodium deoxycholate, 150 mM NaCl), overnight at 4°C, three washes with RIPA; bound proteins analysed by mass spectrometry; hearts of WT and mitolnc-deficient mice, no apparent differences in composition.

Amino acid sequences for entries named in this document (tags omitted). Residues count along the entry.
UniProt P53395, residues 62-482: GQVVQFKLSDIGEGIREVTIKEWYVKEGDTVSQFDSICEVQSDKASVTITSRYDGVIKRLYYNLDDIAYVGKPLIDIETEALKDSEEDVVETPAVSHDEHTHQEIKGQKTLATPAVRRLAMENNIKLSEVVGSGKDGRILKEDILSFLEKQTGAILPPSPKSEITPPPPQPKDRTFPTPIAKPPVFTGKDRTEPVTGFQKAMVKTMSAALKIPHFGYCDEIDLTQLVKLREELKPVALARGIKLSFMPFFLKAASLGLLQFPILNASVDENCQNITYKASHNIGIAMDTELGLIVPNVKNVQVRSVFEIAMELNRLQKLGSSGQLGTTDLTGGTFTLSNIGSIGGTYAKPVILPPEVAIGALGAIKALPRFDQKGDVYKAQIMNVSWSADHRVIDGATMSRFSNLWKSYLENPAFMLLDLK

Experiment [2] addresses T1, MCCA (mouse (endogenous in heart)) (UniProt Q99MR8).
T1 sequence: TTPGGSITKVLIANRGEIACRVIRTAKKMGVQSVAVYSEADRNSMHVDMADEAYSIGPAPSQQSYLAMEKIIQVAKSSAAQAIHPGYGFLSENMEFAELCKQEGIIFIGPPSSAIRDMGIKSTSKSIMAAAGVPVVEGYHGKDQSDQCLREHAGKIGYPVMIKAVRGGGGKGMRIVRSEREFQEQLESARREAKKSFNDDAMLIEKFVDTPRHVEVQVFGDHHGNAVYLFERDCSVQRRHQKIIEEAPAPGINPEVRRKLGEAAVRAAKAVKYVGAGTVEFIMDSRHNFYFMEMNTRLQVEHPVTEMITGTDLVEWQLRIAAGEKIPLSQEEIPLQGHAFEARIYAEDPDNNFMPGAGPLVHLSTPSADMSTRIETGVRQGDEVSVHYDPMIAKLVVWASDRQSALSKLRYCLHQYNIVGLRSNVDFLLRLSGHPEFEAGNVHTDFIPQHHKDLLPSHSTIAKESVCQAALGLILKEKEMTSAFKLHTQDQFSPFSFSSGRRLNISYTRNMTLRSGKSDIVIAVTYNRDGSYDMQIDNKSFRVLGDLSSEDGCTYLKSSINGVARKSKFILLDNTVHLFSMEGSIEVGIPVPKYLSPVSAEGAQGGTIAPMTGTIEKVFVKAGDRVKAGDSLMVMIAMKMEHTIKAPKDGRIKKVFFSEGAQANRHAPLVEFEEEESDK
The experiment is described as above.

No constants are given. Whether binding was seen depends on the method and setting. Binding seen in cells or lysates may run through a third protein. A yes stands for co-enrichment or nearness to the bait. Other partners may have been found.

B1: BCKDHB (E1 subunit of the BCKDH complex) (protein, UniProt Q6P3A8 49-390)
chain: VAHFTFHPDPESLQYGQTQKMNLFQSITSALDNSLAKDPTAVIFGEDVAFGGVFRCTVGLRDKYGKDRVFNTPLCEQGIVGFGIGIAVTGATAIAEIQFADYIFPAFDQIVNEAAKYRYRSGDLFNCGSLTIRAPWGCVGHGALYHSQSPEAFFAHCPGIKVVIPRSPFQAKGLLLSCIEDKNPCIFFEPKILYRAAVEQVPVEPYKIPLSQAEVIQEGSDVTLVAWGTQVHVIREVASMAQEKLGVSCEVIDLRTIVPWDVDTVCKSVIKTGRLLISHEAPLTGGFASEISSTVQEECFLNLEAPISRVCGYDTPFPHIFEPFYIPDKWKCYDALRKMINY
As for B1, the binding result in experiment [1] and in experiment [2] was “binds” throughout.

B2: DLD, FAD-dependent dihydrolipoyl dehydrogenase (E3 component of the BCKDH complex) (protein, UniProt O08749 36-509)
chain: ADQPIEADVTVIGSGPGGYVAAIKSAQLGFKTVCIEKNETLGGTCLNVGCIPSKALLNNSHYYHMAHGKDFASRGIEIPEVRLNLEKMMEQKHSAVKALTGGIAHLFKQNKVVHVNGFGKITGKNQVTATKADGSTQVIDTKNILVATGSEVTPFPGITIDEDTIVSSTGALSLKKVPEKLVVIGAGVIGVELGSVWQRLGADVTAVEFLGHVGGIGIDMEISKNFQRILQRQGFKFKLNTKVTGATKKSDGKIDVSVEAASGGKAEVITCDVLLVCIGRRPFTQNLGLEELGIELDPKGRIPVNNRFQTKIPNIYAIGDVVAGPMLAHKAEDEGIICVEGMAGGAVHIDYNCVPSVIYTHPEVAWVGKSEEQLKEEGIEFKIGKFPFAANSRAKTNADTDGMVKILGHKSTDRVLGAHILGPGAGEMVNEAALALEYGASCEDIARVCHAHPTLSEAFREANLAAAFGKPINF
For the molecule B2, the binding entry in experiment [1] and in experiment [2] was “binds” in each case.

B3: BCKDHA (E1 subunit of the BCKDH complex) (protein, UniProt P50136 43-442)
chain: PSLDDKPQFPGASAEFVDKLEFIQPNVISGIPIYRVMDRQGQIINPSEDPHLPQEEVLKFYRSMTLLNTMDRILYESQREGRISFYMTNYGEEGTHVGSAAALERTDLVFGQYREAGVLMYRDYPLELFMSQCYGNVNDPGKGRQMPVHYGCKERHFVTISSPLATQIPQAVGAAYAAKRANANRIVICYFGEGAASEGDAHAGFNFAATLECPIIFFCRNNGYAISTPTSEQYRGDGIAARGPGYGIKSIRVDGNDVFAVYNATKEARRRAVAENQPFLIEAMTYRIGHHSTSDDSSAYRSVDEVNYWDKQDHPISRLRQYLLNQGWWDEEQEKAWRKQSRKKVMEAFEQAERKLKPNPSLLFSDVYQEMPAQLRRQQESLARHLQTYGEHYPLDHFEK
For the molecule B3, the binding result in experiment [1] and in experiment [2] was “binds” throughout.

The values above are taken from article PMC11194096.
